PubChem BioAssay AID1671195 | Yale University | 2021
This is one part, drawn at random, of about 22,000 deposited reagents. About 1,510 of them (6.9%) count as active. 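Active includes knockdowns raising or lowering LDL uptake; positive z-scores mean more uptake, negative mean less.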

Aim: 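Regulators of LDL receptor activity judged by labelled LDL uptake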 (primary screen)
Cell system: human Huh7 hepatoma cells
Knock-down reagent: siRNA pool against human genes, 18 nM
Duration: about 2 to 2.5 days of knockdown, then 8 h LDL uptake
Treatment: DiI-labelled LDL at 30 µg/ml for 8 h, in lipoprotein-deficient serum medium
Measured: 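Per-cell DiI-LDL intensity by automated imaging; well means scaled to the plate median and given as a robust z-score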
Reading the numbers: robust z-score: higher = more LDL uptake after knockdown
Call rule: 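a gene counts as active if at least two replicate z-scores exceed ±2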

TLE4 showed robust z-score, replicate 1 = 1.2; robust z-score, replicate 2 = 0.811; robust z-score, replicate 3 = 0.639; inactive. GAPDHS showed robust z-score, replicate 1 = 0.417; robust z-score, replicate 2 = -0.341; robust z-score, replicate 3 = 0.194; inactive. For CEACAM3 the deposit lists robust z-score, replicate 1 = 0.973; robust z-score, replicate 2 = 1.07; robust z-score, replicate 3 = 2.04; inactive. INTS5 scored robust z-score, replicate 1 = -1.1; robust z-score, replicate 2 = -0.284; robust z-score, replicate 3 = -1.21; inactive. CYP4F11 scored robust z-score, replicate 1 = -1.48; robust z-score, replicate 2 = -1.31; robust z-score, replicate 3 = -1.14; inactive. Against SF3B2, the entry reads robust z-score, replicate 1 = -1.13; robust z-score, replicate 2 = 0.239; robust z-score, replicate 3 = -0.29; inactive.

Silencing of PRKCB resulted in: robust z-score, replicate 1 = -0.578; robust z-score, replicate 2 = 0.717; robust z-score, replicate 3 = -0.573; inactive. Against CUTC, the entry reads robust z-score, replicate 1 = 0.861; robust z-score, replicate 2 = -0.131; robust z-score, replicate 3 = 0.733; inactive. PURA gave robust z-score, replicate 1 = 0.4; robust z-score, replicate 2 = 0.713; robust z-score, replicate 3 = 0.824; inactive. Silencing of TSR3 resulted in: robust z-score, replicate 1 = 0.257; robust z-score, replicate 2 = 0.571; robust z-score, replicate 3 = -0.606; inactive. For NPIPB1P, the entry reads robust z-score, replicate 1 = 1.07; robust z-score, replicate 2 = 1.37; robust z-score, replicate 3 = 1.68; inactive. Against ZNF280C the deposit lists robust z-score, replicate 1 = -0.618; robust z-score, replicate 2 = -0.971; robust z-score, replicate 3 = 0.13; inactive.

Depletion of EXPH5 gave: robust z-score, replicate 1 = 1.12; robust z-score, replicate 2 = 1.13; robust z-score, replicate 3 = 2.76; inactive. With knock-down of ACVR1C, the record shows robust z-score, replicate 1 = -0.764; robust z-score, replicate 2 = -0.503; robust z-score, replicate 3 = -0.73; inactive. Silencing of LINC02139 resulted in: robust z-score, replicate 1 = 1.74; robust z-score, replicate 2 = 1.66; robust z-score, replicate 3 = 1.14; inactive. After knock-down of MN1 the results were robust z-score, replicate 1 = 0.281; robust z-score, replicate 2 = 0.247; robust z-score, replicate 3 = 0.719; inactive. Depletion of LOC401937 (retired record) resulted in: robust z-score, replicate 1 = -0.785; robust z-score, replicate 2 = -0.51; robust z-score, replicate 3 = -0.068; inactive. With knock-down of RHBDD2 the results were robust z-score, replicate 1 = 0.947; robust z-score, replicate 2 = 1.06; robust z-score, replicate 3 = 1.05; inactive.

With knock-down of PLXND1 the results were robust z-score, replicate 1 = -0.0861; robust z-score, replicate 2 = 0.524; robust z-score, replicate 3 = 0.626; inactive. Against PRLHR, the entry reads robust z-score, replicate 1 = -0.118; robust z-score, replicate 2 = 0.788; robust z-score, replicate 3 = 1.21; inactive. Against CSRP3, the values are robust z-score, replicate 1 = -0.578; robust z-score, replicate 2 = -0.242; robust z-score, replicate 3 = 0.783; inactive. For LOC440380 (retired record) the deposit lists robust z-score, replicate 1 = -1.29; robust z-score, replicate 2 = -1.33; robust z-score, replicate 3 = -1.48; inactive. With knock-down of YPEL5, the record shows robust z-score, replicate 1 = -1.21; robust z-score, replicate 2 = -0.328; robust z-score, replicate 3 = 0.00277; inactive. NIFK scored robust z-score, replicate 1 = 1.15; robust z-score, replicate 2 = 1.05; robust z-score, replicate 3 = 1.16; inactive.

2 entries from above in another layout:
CEACAM3
- robust z-score, replicate 1: 0.973
- robust z-score, replicate 2: 1.07
- robust z-score, replicate 3: 2.04
- activity call: inactive

INTS5
- robust z-score, replicate 1: -1.1
- robust z-score, replicate 2: -0.284
- robust z-score, replicate 3: -1.21
- activity call: inactive
